Reference: PMC11335214
Results are given in words; binding and its absence hold for the method and conditions named. Binding seen in cells or lysates may run through a third protein. Some entries that bind do so weakly or less than the wild type. Sequences can lack the tags named with a protein.

Assays:
[1] = molecular target: T1, HA-tagged Lhx4 (UniProt P53776); assay: co-IP; P19 cells transfected with pCS2-HA-Lhx3 or pCS2-HA-Lhx4 with or without pCS2-Myc-Isl1 or pCS2-Myc-Isl2 (500 ng each), lysed after 48 h in Tris-HCl 20 mM pH 7.5, 120 mM NaCl, 0.5% NP40, 10% glycerol; anti-HA antibody overnight at 4 °C, protein G-agarose beads; immunoblot with anti-Myc, anti-HA and anti-CLIM1/2
T1 sequence: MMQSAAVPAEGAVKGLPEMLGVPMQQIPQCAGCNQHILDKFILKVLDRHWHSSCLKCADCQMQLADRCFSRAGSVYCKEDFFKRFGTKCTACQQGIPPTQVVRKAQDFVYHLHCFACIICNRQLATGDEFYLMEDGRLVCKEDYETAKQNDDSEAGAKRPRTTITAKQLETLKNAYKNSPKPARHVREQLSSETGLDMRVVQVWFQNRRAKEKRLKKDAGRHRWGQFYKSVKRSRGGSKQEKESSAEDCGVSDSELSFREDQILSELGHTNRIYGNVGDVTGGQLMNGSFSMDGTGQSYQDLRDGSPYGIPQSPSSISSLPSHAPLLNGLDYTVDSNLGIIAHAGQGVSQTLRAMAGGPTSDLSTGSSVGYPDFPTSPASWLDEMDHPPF

[2] = molecular target: T2, HA-tagged Lhx3 (UniProt P50481); assay: as above
T2 sequence: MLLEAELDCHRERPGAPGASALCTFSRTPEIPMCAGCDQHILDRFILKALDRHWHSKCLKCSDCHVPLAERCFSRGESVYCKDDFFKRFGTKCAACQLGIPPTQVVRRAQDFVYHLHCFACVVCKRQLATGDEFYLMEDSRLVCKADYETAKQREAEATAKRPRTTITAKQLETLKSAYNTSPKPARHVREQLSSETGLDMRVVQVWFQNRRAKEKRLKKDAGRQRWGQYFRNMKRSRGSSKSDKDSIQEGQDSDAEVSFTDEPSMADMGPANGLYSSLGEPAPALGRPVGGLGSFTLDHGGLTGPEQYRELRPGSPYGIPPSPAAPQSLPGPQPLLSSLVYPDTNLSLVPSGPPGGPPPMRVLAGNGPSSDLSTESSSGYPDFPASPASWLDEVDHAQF

B1: Myc-tagged Isl1 (protein, UniProt P61372 1-349)
chain: MGDMGDPPKKKRLISLCVGCGNQIHDQYILRVSPDLEWHAACLKCAECNQYLDESCTCFVRDGKTYCKRDYIRLYGIKCAKCSIGFSKNDFVMRARSKVYHIECFRCVACSRQLIPGDEFALREDGLFCRADHDVVERASLGAGDPLSPLHPARPLQMAAEPISARQPALRPHVHKQPEKTTRVRTVLNEKQLHTLRTCYAANPRPDALMKEQLVEMTGLSPRVIRVWFQNKRCKDKKRSIMMKQLQQQQPNDKTNIQGMTGTPMVAASPERHDGGLQANPVEVQSYQPPWKVLSDFALQSDIDQPAFQQLVNFSEGGPGSNSTGSEVASMSSQLPDTPNSMVASPIEA
- binding [1]: binds
- binding [2]: binds

B2: Myc-tagged Isl2 (protein, UniProt Q9CXV0 1-359)
chain: MVDIIFHYPFLGAMGDHSKKKPGTAMCVGCGSQIHDQFILRVSPDLEWHAACLKCAECSQYLDETCTCFVRDGKTYCKRDYVRLFGIKCAQCQVGFSSSDLVMRARDSVYHIECFRCSVCSRQLLPGDEFSLREHELLCRADHGLLLERAAAGSPRSPGPLPGARGLHLPDAGSGRQPSLRTHVHKQAEKTTRVRTVLNEKQLHTLRTCYAANPRPDALMKEQLVEMTGLSPRVIRVWFQNKRCKDKKKSILMKQLQQQQHSDKASLQGLTGTPLVAGSPIRHENAVQGSAVEVQTYQPPWKALSEFALQSDLDQPAFQQLVSFSESGSLGNSSGSDVTSLSSQLPDTPNSMVPSPVET
- binding [1]: binds
- binding [2]: binds

B3: nuclear LIM interactor (NLI) (protein, UniProt P70662 1-411)
chain: MSVGCACPGCSSKSFKLYSPKEPPNGNAFPPFHPGTMLDRDVGPTPMYPPTYLEPGIGRHTPYGNQTDYRIFELNKRLQNWTEECDNLWWDAFTTEFFEDDAMLTITFCLEDGPKRYTIGRTLIPRYFRSIFEGGATELYYVLKHPKEAFHSNFVSLDCDQGSMVTQHGKPMFTQVCVEGRLYLEFMFDDMMRIKTWHFSIRQHRELIPRSILAMHAQDPQMLDQLSKNITRCGLSNSTLNYLRLCVILEPMQELMSRHKTYSLSPRDCLKTCLFQKWQRMVAPPAEPARQQPSKRRKRKMSGGSTMSSGGGNTNNSNSKKKSPASTFALSSQVPDVMVVGEPTLMGGEFGDEDERLITRLENTQFDAANGIDDEDSFNNSPALGANSPWNSKPPSSQESKSENPTSQASQ
- binding [1]: binds
- binding [2]: binds
